{
  "source": "PubChem BioAssay (EPA / NIEHS)",
  "note": "Inconclusive results, whose numbers are uncertain, are shown with a selection of clear calls. A potency beside an inconclusive call is a rough fit, not a confirmed value. Where a structure was tested more than once in an assay, its records may differ in their call. Active and inactive are the calls of the source. Rule for the calls: active = hit-call score of the fitted dose curve at least 0.9, where 1 is the maximum; inconclusive = response in the unintended direction; inactive = score below 0.9.",
  "data": [
    {"assay": "Tanguay_ZF_120hpf_PFIN_legacy: (Legacy) Oregon State University Tanguay Lab 120 Hour Post-fertilization zebrafish Assay for Pectoral Fin Malformation (AID 2283648);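 note: each larva judged yes or no for fin defect by brightfield with dead larvae skipped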", "method": "Tanguay_ZF_120hpf_legacy is a whole embryo, multiplexed endpoint assay using zebrafish larvae exposed for 120 hours post fertilization on a 96-well plate.Tanguay_ZF_120hpf_PFIN_legacy is one of one assay component(s) measured or calculated from the Tanguay_ZF_120hpf_legacy assay. It is designed to make measurements of zebrafish development as detected with brightfield microscopy of developing zebrafish embryos.Data from the assay component Tanguay_ZF_120hpf_PFIN_legacy was analyzed into 1 assay endpoints. This assay endpoint, Tanguay_ZF_120hpf_PFIN_legacy, was analyzed in the positive analysis fitting direction relative to DMSO as the negative control and baseline of activity. Using a type of morphology reporter, gain-of-signal activity can be used to understand changes in developmentals as they relate to the whole embryo. To generalize the intended target to other relatable targets, this assay endpoint is annotated to the zebrafish development intended target family, where the subfamily is pectoral fin morphogenesis.\nZebrafish husbandry: Tropical 5D wild-type adult zebrafish were housed in at an approximate density of 1000 per 100 gallon tank at the Sinnhuber Aquatic Research Laboratory, Oregon State University, Corvallis, OR. Each tank was kept at standard laboratory conditions of 28C on a 14-h light/10-h dark photoperiod in fish water consisting of reverse osmosis water supplemented with a commercially available salt (Instant Ocean). Spawning funnels were placed into the tanks the night prior, and embryos were collected and staged. To increase bioavailability, the chorion was enzymatically removed using pronase (63.6mg/ml, >/= 3.5U/mg, Sigma-Aldrich: P5147) at 4 hours post fertilization (hpf) using a custom automated dechorionator.Chemical exposures: Six hpf dechorionated embryos were placed 1 embryo per well in a 96-well plate prefilled with 90 ul of EM using automated embryo placement systems (AEPS). Ten microliters of each row of dilution plate 2 was added to 2 exposure plates. The final DMSO concentration used was 0.64% (vol/vol). Thirty-two embryos were also exposed to 5uM trimethyltin chloride (positive control). Plates were sealed to prevent evaporation and foil covered to reduce light exposure and kept in a 28C incubator. Embryos were statically exposed until 120 hpf. At 24 hpf, embryos were assessed for photomotor response using a custom photomotor response analysis tool (PRAT) and for developmental toxicity endpoints (MO24: mortality at 24 hpf, DP: developmental progression, SM: spontaneous movement, and NC: notochord distortion). At 120 hpf, locomotor activity was measured using Viewpoint Zebralab and assessed for 18 endpoints. Zebrafish acquisition and analysis program (ZAAP), a custom program designed to inventory, acquire, and manage zebrafish data, was used to collect developmental endpoints as either present or absent (i.e., binary responses were recorded). If mortality occurred for an embryo (at either 24 or 120 hpf), the non-mortality endpoints were not measured.", "values": [
      {"smiles": "CS/C(C)=N/OC(=O)N(C)SN(C)C(=O)O/N=C(\\C)SC", "AC50": "inconclusive: 62.6 µM"},
      {"smiles": "CCCOc1nn(C(=O)NS(=O)(=O)c2ccccc2C(=O)OC)c(=O)n1C", "AC50": "inconclusive: 2.02 µM"},
      {"smiles": "COCCOCCO", "AC50": "inconclusive: 21.8 µM"},
      {"smiles": "CNC(=O)ON=C(C)SC", "outcome": "inactive"},
      {"smiles": "Cc1cccc(C)c1N", "AC50": "inconclusive: 1.54 µM"},
      {"smiles": "C=C(C)[C@H]1Cc2c(ccc3c2O[C@@H]2COc4cc(OC)c(OC)cc4[C@@H]2C3=O)O1", "outcome": "inactive"},
      {"smiles": "CCCCC(C#N)(Cn1cncn1)c1ccc(Cl)cc1", "note": "(stereo not given)", "AC50": "active: 24.1 µM"},
      {"smiles": "CC(C)O.CC(C)O.OCCN(CCO)CCO.OCCN(CCO)CCO.[Ti]", "AC50": "inconclusive: 27.8 µM"},
      {"smiles": "c1cc2ccc3cccc4ccc(c1)c2c34", "AC50": "inconclusive: 56.2 µM"},
      {"smiles": "O=C(O)c1nc(Cl)ccc1Cl", "AC50": "inconclusive: 2.63 µM"},
      {"smiles": "COS(=O)(=O)OC", "outcome": "inactive"},
      {"smiles": "CN(C)N=O", "AC50": "inconclusive: 5.24 µM"},
      {"smiles": "CCOc1nc(C(Cl)(Cl)Cl)ns1", "AC50": "inconclusive: 70.7 µM"},
      {"smiles": "CC1=NNC(=O)N(/N=C/c2cccnc2)C1", "outcome": "inactive"},
      {"smiles": "c1ccc(NNc2ccccc2)cc1", "AC50": "inconclusive: 63.6 µM"},
      {"smiles": "CCOP(=O)(NC(C)C)Oc1ccc(SC)c(C)c1", "note": "(stereo not given)", "AC50": "active: 16.9 µM"},
      {"smiles": "[Cl-].[Cl-].[Hg+2]", "AC50": "active: 3.5 µM"},
      {"smiles": "CCOc1ccc(C(C)(C)COCc2cccc(Oc3ccccc3)c2)cc1", "outcome": "inactive"},
      {"smiles": "C#CC(C)(C)NC(=O)c1cc(Cl)cc(Cl)c1", "AC50": "inconclusive: 57.7 µM"},
      {"smiles": "CCOC(=O)CC(SP(=S)(OC)OC)C(=O)OCC", "note": "(stereo not given)", "AC50": "active: 34 µM"},
      {"smiles": "CNC(=O)CSP(=S)(OC)OC", "outcome": "inactive"},
      {"smiles": "CN(C)c1ccc(C(=O)c2ccc(N(C)C)cc2)cc1", "AC50": "active: 17.2 µM"},
      {"smiles": "FC(F)C(F)(F)OCC(Cn1cncn1)c1ccc(Cl)cc1Cl", "note": "(stereo not given)", "AC50": "active: 46.6 µM"},
      {"smiles": "CCNC(=O)NC(=O)C(C#N)=NOC", "AC50": "active: 45.6 µM"},
      {"smiles": "O=C(Nc1ccccc1)Nc1ccnc(Cl)c1", "AC50": "inconclusive: 170 µM"},
      {"smiles": "CCOP(=S)(OCC)Oc1ccc([N+](=O)[O-])cc1", "AC50": "inconclusive: 1.17 µM"},
      {"smiles": "O=P(Oc1ccccc1)(Oc1ccccc1)Oc1ccccc1", "outcome": "inactive"},
      {"smiles": "CCCCOC(=O)c1ccccc1C(=O)O", "outcome": "inactive"},
      {"smiles": "ClC1=C(Cl)C2(Cl)C3C(Cl)C(Cl)CC3C1(Cl)C2(Cl)Cl", "note": "(stereo not given)", "AC50": "inconclusive: 1.33 µM"},
      {"smiles": "O=S(=O)(O)C(F)(F)C(F)(F)C(F)(F)C(F)(F)C(F)(F)C(F)(F)C(F)(F)C(F)(F)F", "AC50": "active: 36 µM"},
      {"smiles": "CNC(=O)/C=C(\\C)OP(=O)(OC)OC", "outcome": "inactive"},
      {"smiles": "O=C(O)C(F)(F)C(F)(F)C(F)(F)C(F)(F)C(F)(F)C(F)(F)C(F)(F)F", "AC50": "inconclusive: 11.9 µM"},
      {"smiles": "CC(C)[C@H](C(=O)O[C@H](C#N)c1cccc(Oc2ccccc2)c1)c1ccc(Cl)cc1", "AC50": "active: 1.17 µM"},
      {"smiles": "C#CCC1=C(C)C(OC(=O)C2C(C=C(C)C)C2(C)C)CC1=O", "note": "(stereo not given)", "outcome": "inactive"},
      {"smiles": "CCN(CC)CCO", "outcome": "inactive"},
      {"smiles": "Oc1ccccc1Cl", "AC50": "inconclusive: 1.45 µM"},
      {"smiles": "S=C1NCCN1", "AC50": "inconclusive: 4.13 µM"},
      {"smiles": "CCOC(=O)[C@]1(c2ccccc2)Oc2ccccc2[C@@H]1N", "AC50": "inconclusive: 3.48 µM"},
      {"smiles": "CC1=C(C(=O)Nc2ccccc2)SCCO1", "AC50": "inconclusive: 20.2 µM"},
      {"smiles": "ClC(Cl)(Cl)c1ccccc1", "AC50": "inconclusive: 6.67 µM"}
    ]}
  ]
}
